Reference: paper PMC8773821
No constants are given. Whether binding was seen depends on the method and setting. Binding seen in cells or lysates may run through a third protein. Some binding calls cover weakened binding; strength is not graded here. Tags and fused reporters may be left off the sequences shown.

By UniProt entry, the sequences of proteins in these tests, tags left out.
UniProt P19474: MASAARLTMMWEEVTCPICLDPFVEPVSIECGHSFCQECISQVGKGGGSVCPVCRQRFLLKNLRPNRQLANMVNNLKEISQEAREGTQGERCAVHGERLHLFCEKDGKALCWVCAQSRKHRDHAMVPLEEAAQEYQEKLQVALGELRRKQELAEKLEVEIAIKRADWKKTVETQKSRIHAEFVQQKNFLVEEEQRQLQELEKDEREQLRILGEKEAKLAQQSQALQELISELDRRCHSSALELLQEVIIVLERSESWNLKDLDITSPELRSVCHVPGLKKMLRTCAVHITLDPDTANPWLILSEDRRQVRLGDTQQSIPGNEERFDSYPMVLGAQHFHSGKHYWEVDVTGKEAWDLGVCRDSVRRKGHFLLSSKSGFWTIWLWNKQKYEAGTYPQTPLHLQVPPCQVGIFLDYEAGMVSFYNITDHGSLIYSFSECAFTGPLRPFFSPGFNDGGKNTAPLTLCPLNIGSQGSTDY

Target: T1, pregnane X receptor (PXR), full-length, from the plasmid pcDNA3.1-EGFP-PXR-Flag (human) (UniProt O75469)
T1 sequence: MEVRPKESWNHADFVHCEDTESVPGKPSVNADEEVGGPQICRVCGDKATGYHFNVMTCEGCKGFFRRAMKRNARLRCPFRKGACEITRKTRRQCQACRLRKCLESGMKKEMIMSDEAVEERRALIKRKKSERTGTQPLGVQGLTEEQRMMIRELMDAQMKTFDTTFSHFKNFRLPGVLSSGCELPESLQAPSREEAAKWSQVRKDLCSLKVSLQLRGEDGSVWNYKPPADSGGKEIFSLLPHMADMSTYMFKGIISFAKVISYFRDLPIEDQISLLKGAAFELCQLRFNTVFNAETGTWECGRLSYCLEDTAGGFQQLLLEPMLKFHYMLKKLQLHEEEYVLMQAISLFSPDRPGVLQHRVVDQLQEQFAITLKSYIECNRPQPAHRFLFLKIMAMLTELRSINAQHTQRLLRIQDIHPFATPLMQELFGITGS
Assay: co-IP; HEK 293T cells cotransfected with PXR and TRIM21 for 48 h; whole-cell lysates in RIPA with PMSF; precipitated on agarose beads with anti-Flag (the legend says PXR antibody), anti-TRIM21 or IgG; blotted with anti-PXR or anti-TRIM21

binding: binds
Substance: tripartite motif containing 21 (TRIM21), full-length (from UniProt P19474 1-475) (enzyme)
